Construct, isoform or probe ends are uncertain for at least one entry. For part of these data: At least one verdict rests on a figure or table, not on a statement of the authors.
Experiments:
[1] = system: TBP (human TATA binding protein) + TFIIA (alpha/beta and gamma subunits); assay: spFRET; conditions: 50 mM KCl, 20 mM Tris pH 7.9, 4 mM MgCl2, 1 mM DTT, 5% glycerol, 5-150 mM KCl as indicated, 1 nM labeled DNA (1-5 nM in Results), 20 min, 25 C (37 C tested), recombinant protein
[2] = system: TBP (human TATA binding protein) + TFIIA (alpha/beta and gamma subunits); assay: bulk FRET; conditions: 20 mM Tris pH 7.9, 4 mM MgCl2, 1 mM DTT, 5% glycerol, 5-150 mM KCl as indicated, 1 nM labeled DNA (1-5 nM in Results), 20 min, 25 C (37 C tested), recombinant protein
[3] = biological target: TBP (human TATA binding protein) (Homo sapiens) (UniProt P20226); assay: competition with a labelled probe; conditions: 0 and 50 mM KCl, equimolar to TBP, removes biphasic off-site binding on TATA-14I; 20 mM Tris pH 7.9, 4 mM MgCl2, 1 mM DTT, 5% glycerol, 5-150 mM KCl as indicated, 1 nM labeled DNA (1-5 nM in Results), 20 min; 25 C (37 C tested); recombinant protein; label: unlabeled
[4] = biological target: TBP (human TATA binding protein) (Homo sapiens) (UniProt P20226); assay: spFRET; conditions: 100 nM TBP (legend, text says 200 nM), no broadening; 20 mM Tris pH 7.9, 4 mM MgCl2, 1 mM DTT, 5% glycerol, 5-150 mM KCl as indicated, 1 nM labeled DNA (1-5 nM in Results), 20 min; 25 C (37 C tested); recombinant protein; label: donor and acceptor FRET pair

Chains of the proteins cited; added tags and fusions are not shown. A line that says so, or that is headed by a name, gives the form on record, which may keep a tag or linker.
UniProt P20226, whole entry: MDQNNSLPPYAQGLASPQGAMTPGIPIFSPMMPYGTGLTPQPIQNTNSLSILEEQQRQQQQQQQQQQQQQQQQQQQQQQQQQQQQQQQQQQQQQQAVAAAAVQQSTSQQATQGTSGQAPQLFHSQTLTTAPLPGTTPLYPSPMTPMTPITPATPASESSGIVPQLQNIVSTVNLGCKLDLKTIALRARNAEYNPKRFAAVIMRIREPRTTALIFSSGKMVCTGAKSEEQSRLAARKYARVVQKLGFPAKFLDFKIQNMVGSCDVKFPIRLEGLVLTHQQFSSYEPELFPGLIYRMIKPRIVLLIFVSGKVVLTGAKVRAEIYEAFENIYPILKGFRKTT
TBP (human TATA binding protein) + TFIIA (alpha/beta and gamma subunits), one chain, as listed by the source, chain 2 of 3: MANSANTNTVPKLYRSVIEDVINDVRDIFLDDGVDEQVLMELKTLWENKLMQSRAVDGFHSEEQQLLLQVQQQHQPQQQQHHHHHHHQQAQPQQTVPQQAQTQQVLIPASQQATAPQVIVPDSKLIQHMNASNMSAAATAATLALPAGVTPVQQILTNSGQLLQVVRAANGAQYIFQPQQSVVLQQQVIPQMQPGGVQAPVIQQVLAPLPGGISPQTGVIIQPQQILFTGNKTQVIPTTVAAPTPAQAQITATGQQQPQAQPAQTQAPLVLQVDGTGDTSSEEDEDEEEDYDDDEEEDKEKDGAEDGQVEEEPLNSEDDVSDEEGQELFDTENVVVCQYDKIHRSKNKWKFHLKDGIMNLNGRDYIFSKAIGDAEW
TBP (human TATA binding protein) + TFIIA (alpha/beta and gamma subunits), one chain, as listed by the source, chain 3 of 3: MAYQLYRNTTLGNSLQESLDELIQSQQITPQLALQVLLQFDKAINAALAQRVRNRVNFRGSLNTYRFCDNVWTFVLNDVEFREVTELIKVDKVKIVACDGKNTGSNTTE
TBP (human TATA binding protein) + TFIIA (alpha/beta and gamma subunits), one chain, as listed by the source, chain 1 of 3: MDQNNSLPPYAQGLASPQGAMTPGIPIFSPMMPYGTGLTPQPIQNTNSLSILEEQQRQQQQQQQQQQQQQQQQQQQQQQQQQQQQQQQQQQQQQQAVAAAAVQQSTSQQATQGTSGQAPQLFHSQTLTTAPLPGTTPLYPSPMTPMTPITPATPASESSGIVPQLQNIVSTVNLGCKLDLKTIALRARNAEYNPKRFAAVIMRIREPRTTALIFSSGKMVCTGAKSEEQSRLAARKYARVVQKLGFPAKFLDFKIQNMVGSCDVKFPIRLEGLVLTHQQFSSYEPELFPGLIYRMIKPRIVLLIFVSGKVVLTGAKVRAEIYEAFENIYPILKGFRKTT

## GGCTATAAAAGGGG (double strand) [TATA-14E]
[1]; higher affinity than TBP alone
  binding result: binds
[2]; all KCl concentrations, very tight
  binding result: binds

## GGTGCCGAGGCCGTCAATTGCTCGTAGACAGC (double strand) [TATA-less competitor]
[3]
  binding result: binds

## TGGGGTATAAAAGGGGGTGGACACGTG (double strand) [TATA-18I]
[1]; 200 nM, single species
  binding result: binds

## TGGTATAAAAGGGA / CACGTGTCCGCTCCCTTTTATACCA [TATA-14Iss]
[4]
  binding result: binds

## TGGTATAAAAGGGTGCGGACACGTG (double strand) [TATA-14I]
[2]; varying KCl, biphasic drop subdued
  binding result: binds

— PMC4081063, “The conformational state of the nucleosome entry–exit site modulates TATA box-specific TBP binding”
